Assay results taken from the supplement of paper PMC9694430.
Only a part is listed here, and it is no random draw.

Chains of the proteins cited; added tags and fusions are not shown. A line that says so, or that is headed by a name, gives the form on record, which may keep a tag or linker.
LOC_OS06G16330-cb003, as listed by the source: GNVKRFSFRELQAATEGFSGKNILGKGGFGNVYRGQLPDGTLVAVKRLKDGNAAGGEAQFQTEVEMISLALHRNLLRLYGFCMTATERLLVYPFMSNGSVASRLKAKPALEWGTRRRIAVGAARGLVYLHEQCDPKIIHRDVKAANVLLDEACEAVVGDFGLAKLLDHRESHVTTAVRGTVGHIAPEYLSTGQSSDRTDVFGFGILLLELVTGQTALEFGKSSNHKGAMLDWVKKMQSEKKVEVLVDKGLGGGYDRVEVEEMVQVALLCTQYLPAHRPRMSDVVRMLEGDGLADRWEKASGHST

Key:
Assay in all cases: thermal shift delta Tm vs DMSO control; higher = stronger stabilization (binding)
Details in all cases: 12.5 µM; protein concentration 2 µM
LOC_OS01G52050-cb004 = tested on: T1, LOC_OS01G52050-cb004
T1 sequence (whole entry): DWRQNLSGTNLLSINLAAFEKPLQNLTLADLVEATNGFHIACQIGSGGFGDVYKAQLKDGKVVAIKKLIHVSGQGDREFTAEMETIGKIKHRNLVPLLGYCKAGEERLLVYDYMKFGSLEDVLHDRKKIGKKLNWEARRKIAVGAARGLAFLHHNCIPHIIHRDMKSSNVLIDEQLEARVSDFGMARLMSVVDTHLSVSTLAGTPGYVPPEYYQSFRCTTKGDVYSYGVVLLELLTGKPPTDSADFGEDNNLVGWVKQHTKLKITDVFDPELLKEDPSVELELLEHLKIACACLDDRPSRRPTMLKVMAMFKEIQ
Method in brief: (§1)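 Rice kinase domain constructs were expressed in E. coli, purified, and tested by differential scanning fluorimetry with compound added in DMSO. Each well of a 96-well plate held 19.5 μl of 2 μM kinase in 100 mM potassium phosphate pH 7.5, 150 mM NaCl, 10% glycerol and 5 × SYPRO Orange, and fluorescence was read from 25°C to 95°C at 0.05°C/s. The melting temperature shift is the mean of triplicates, taken against protein with DMSO alone after Boltzmann fitting.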

LOC_OS03G27990-cb004 = tested on: LOC_OS03G27990-cb004
Method in brief: as §1

LOC_OS04G38480-cb003 = tested on: T2, LOC_OS04G38480-cb003
T2 sequence (whole entry): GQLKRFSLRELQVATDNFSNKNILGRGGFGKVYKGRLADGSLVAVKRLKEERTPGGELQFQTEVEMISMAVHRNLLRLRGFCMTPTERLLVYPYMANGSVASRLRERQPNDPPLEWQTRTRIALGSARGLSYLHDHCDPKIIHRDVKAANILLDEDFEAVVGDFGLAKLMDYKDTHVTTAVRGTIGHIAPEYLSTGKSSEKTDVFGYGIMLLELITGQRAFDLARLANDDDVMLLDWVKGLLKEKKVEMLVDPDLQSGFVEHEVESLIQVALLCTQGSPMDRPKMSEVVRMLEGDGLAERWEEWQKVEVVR
Method in brief: as §1

LOC_OS04G41100-cb001 = tested on: T3, LOC_OS04G41100-cb001
T3 sequence (whole entry): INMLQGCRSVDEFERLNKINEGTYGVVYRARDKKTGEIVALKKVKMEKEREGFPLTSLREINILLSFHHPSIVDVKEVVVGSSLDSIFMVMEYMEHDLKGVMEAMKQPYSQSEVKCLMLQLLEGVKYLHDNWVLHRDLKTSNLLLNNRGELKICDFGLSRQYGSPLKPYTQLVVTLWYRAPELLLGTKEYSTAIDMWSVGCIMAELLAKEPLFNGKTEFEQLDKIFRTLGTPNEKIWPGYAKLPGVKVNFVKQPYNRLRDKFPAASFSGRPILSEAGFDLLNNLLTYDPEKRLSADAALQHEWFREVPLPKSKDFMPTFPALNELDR
Method in brief: as §1

LOC_OS04G57630-cb004 = tested on: LOC_OS04G57630-cb004
Method in brief: as §1

LOC_OS06G16330-cb003 = tested on: LOC_OS06G16330-cb003
Method in brief: as §1

LOC_OS06G22820-cb001 = tested on: T4, LOC_OS06G22820-cb001
T4 sequence (whole entry): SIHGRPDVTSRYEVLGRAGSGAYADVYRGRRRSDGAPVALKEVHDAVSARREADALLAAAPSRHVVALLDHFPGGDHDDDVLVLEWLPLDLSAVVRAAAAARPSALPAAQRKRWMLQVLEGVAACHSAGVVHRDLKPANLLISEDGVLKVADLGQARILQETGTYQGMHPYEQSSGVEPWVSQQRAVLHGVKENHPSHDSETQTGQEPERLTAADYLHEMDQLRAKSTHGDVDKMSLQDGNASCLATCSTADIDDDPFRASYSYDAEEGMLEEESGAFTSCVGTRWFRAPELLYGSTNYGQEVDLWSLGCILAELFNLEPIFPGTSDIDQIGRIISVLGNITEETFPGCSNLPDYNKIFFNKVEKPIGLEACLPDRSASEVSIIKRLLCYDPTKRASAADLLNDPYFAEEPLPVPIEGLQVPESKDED
Method in brief: as §1

LOC_OS07G06570-cb004 = tested on: LOC_OS07G06570-cb004
Method in brief: as §1

LOC_OS01G70970-cb002 = tested on: LOC_OS01G70970-cb002
Method in brief: as §1

LOC_OS05G43570-cb004 = tested on: LOC_OS05G43570-cb004
Method in brief: as §1

SMILES | thermal shift delta Tm (LOC_OS01G52050-cb004) [°C] | thermal shift delta Tm (LOC_OS03G27990-cb004) [°C] | thermal shift delta Tm (LOC_OS04G38480-cb003) [°C] | thermal shift delta Tm (LOC_OS04G41100-cb001) [°C] | thermal shift delta Tm (LOC_OS04G57630-cb004) [°C] | thermal shift delta Tm (LOC_OS06G16330-cb003) [°C] | thermal shift delta Tm (LOC_OS06G22820-cb001) [°C] | thermal shift delta Tm (LOC_OS07G06570-cb004) [°C] | thermal shift delta Tm (LOC_OS01G70970-cb002) [°C] | thermal shift delta Tm (LOC_OS05G43570-cb004) [°C]
Cc1ccccc1-n1c(Cn2nc(-c3cccc(O)c3)c3c(N)ncnc32)nc2cccc(C)c2c1=O | 0.22 | -0.29 | 0.29 | 0.51 | 0.22 | -0.46 | 0.61 | 0.61 |  | 
Cc1nc2c(-c3cnc(N)nc3)nc(N3CCOCC3)nc2n1C(C)C | 0.19 |  | 1.12 | 0.63 |  | 0.55 | 1.16 |  | 0.55 | 0.55
